Common to all, as to test: two-hybrid; yeast strain PJ69-4a; AP µ subunits fused to the Gal4 activation domain, tails fused to the Gal4 DNA binding domain; growth on -Trp-Leu-His or -Trp-Leu-Ade plates at 30°C recorded at day 3
Test [1] addresses T1, UNC93B1 C-terminal cytosolic region (515-598 a.a.) fused to the Gal4 DNA binding domain (mouse) (UniProt Q8VCW4).
T1 sequence: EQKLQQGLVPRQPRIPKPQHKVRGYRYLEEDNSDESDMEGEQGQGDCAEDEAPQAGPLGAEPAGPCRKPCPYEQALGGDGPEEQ

Test [2] deals with TLR7 cytosolic region (mouse 862-1061 a.a.) fused to the Gal4 DNA binding domain (mouse).
For test [3], the target named is TLR7 cytosolic region Y892A fused to the Gal4 DNA binding domain (mouse).

No constants are given. Whether binding was seen depends on the method and setting. For part of these data: Binding can be weak; no strength is given. Tags and fused reporters may be left off the sequences shown.

Turning to “AP-3Aμ fused to the Gal4 activation domain”, the binding result in test [1] was “no binding”.

B1: AP-4μ fused to the Gal4 activation domain (protein, UniProt O00189 1-453)
chain: MISQFFILSSKGDPLIYKDFRGDSGGRDVAELFYRKLTGLPGDESPVVMHHHGRHFIHIRHSGLYLVVTTSENVSPFSLLELLSRLATLLGDYCGSLGEGTISRNVALVYELLDEVLDYGYVQTTSTEMLRNFIQTEAVVSKPFSLFDLSSVGLFGAETQQSKVAPSSAASRPVLSSRSDQSQKNEVFLDVVERLSVLIASNGSLLKVDVQGEIRLKSFLPSGSEMRIGLTEEFCVGKSELRGYGPGIRVDEVSFHSSVNLDEFESHRILRLQPPQGELTVMRYQLSDDLPSPLPFRLFPSVQWDRGSGRLQVYLKLRCDLLSKSQALNVRLHLPLPRGVVSLSQELSSPEQKAELAEGALRWDLPRVQGGSQLSGLFQMDVPGPPGPPSHGLSTSASPLGLGPASLSFELPRHTCSGLQVRFLRLAFRPCGNANPHKWVRHLSHSDAYVIRI
Consider B1, for which the results for the binding result in test [2] and in test [3] were “binds” and “no binding”, respectively.

The values above are taken from publication PMC3576711.
